# The campaign covered roughly 320,000 compounds. About 2,100 (0.66%) were called active. Inconclusive means that the source gave no clear call. Such entries were picked first, then a sample of the others. The call rests on the fitted dose curve; in most records, active means well fitted inhibition curve with a large enough effect in the signal ratio, with a control signal flat (not every such curve was filed as active); inconclusive means small, poorly fitted or top-dose-only effect, or effect the other way, or a change in a side signal; inactive means flat fitted curve, though single readings scatter; the % refers to the signal ratio. Where the call is inconclusive, the potency comes from a doubtful curve fit.
# Assay: qHTS Assay for Lipid Storage Modulators in Drosophila S3 Cells
# Settings: BODIPY lipid droplet fluorescence, 18-24 h, cells fed with added oleic acid; lipid storage change, negative = inhibition: at 46.1 µM (top of the series) unless noted
# In short: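 Drosophila S3 cells got compounds at several concentrations plus oleic acid (400 uM solution). Laser-scanning cytometry with 488 nm excitation read lipid droplets at 500-530 nm and cells at 575-640 nm. Percent activity was relative to 20 uM Triacsin C.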
# On the % scale 0 is the no-effect control and ±100 the full control effect; potency means the concentration at half of the fitted maximal effect.
SMILES,"lipid storage change, negative = inhibition",Potency
Clc1ccc(CSc2nc3ccncc3[nH]2)cc1,inconclusive: 50.2%,
Cc1ccc(S(=O)(=O)N2CC(C(=O)O)=CC[C@H]2c2ccc(Cl)cc2)cc1,inconclusive: 13.4%,
COc1ccccc1C1(O)CCN(C(=O)c2cccs2)CC1,inconclusive: 47.6%,
Cc1nc(C)c(C(=O)NCc2ccc(Cl)cc2)o1,inconclusive: -30.7%,
CC(=O)Nc1ccc(S(=O)(=O)N(C)CC(=O)OCC(=O)N2CCc3ccccc32)cc1,,active: 20.6 µM
COC(=O)c1ccc(-c2nc3ccccc3o2)cc1,inconclusive: -31.9%,
Cc1ccc(CNc2ncnc3cc(Cl)ccc23)cc1,inconclusive: -24.7%,
COc1ccc(C(=O)NNC(=S)Nc2ccccc2)cc1,inconclusive: 8.39%,
O=C(Nc1ccccc1Cl)Nc1ccnn1C1CCN(C(=O)CCN2CCCO2)CC1,inconclusive: 8.24%,
COc1cc(OC)cc(C(=O)NC(C(=O)NNC(=O)c2cc(Cl)ccc2OC)C(C)C)c1 (configuration not stated),inconclusive: -4.56%,
COc1ccccc1OCC(=O)NCCSCc1cccc(Cl)c1,,"inconclusive: 20.6 µM [rising, single point]"
O=S(=O)(c1ccccc1)c1nc(-c2ccccc2)oc1NCc1cccnc1,inconclusive: 2.48%,
CCN1C(=O)C2(C(C#N)=C(N)Oc3n[nH]c(-c4ccccc4)c32)c2ccccc21 (configuration not stated),inconclusive: 57.4%,
O=C(NC(=S)Nc1ccc2c(c1)OCO2)c1ccc(Cl)cc1,,"inconclusive: 0.116 µM [rising, full curve, poor fit]"
COc1cccc(C2=NN(C(=O)c3ccco3)C(c3ccco3)C2)c1 (configuration not stated),inconclusive: -0.809%,
O=C(NCCCN1CCCC1=O)C(=O)Nc1cccc(F)c1,inconclusive,
COc1cc(C(=O)NCC(C)(C)CNC(=O)c2cc(OC)c(OC)c(OC)c2)cc(OC)c1OC,inconclusive: -31.4%,
CCOc1ncccc1C(=O)OCCN1C(=O)c2ccccc2C1=O,inconclusive: 2.54%,
CCc1ccc2nc(N(CCN(C)C)C(=O)c3ccc4ccccc4c3)sc2c1,,"inconclusive: 5.17 µM [activator, partial curve]"
CCN(CC)S(=O)(=O)c1ccc2c(c1)nc(CCC(=O)O)n2C,inconclusive: 9.61%,
CCN(CC)CC(=O)NN=C(c1ccccc1)c1ccccc1,inconclusive: 33.6%,
C[C@@]12C(=O)N(c3cccc(F)c3)C(=O)N1[C@H](c1ccc(Cl)cc1)[C@@H]1C(=O)N(C3CCCCC3)C(=O)[C@@H]12,,"inconclusive: 14.6 µM [falling, single point]"

# A few values from the results shown:
# O=S(=O)(c1ccccc1)c1nc(-c2ccccc2)oc1NCc1cccnc1 – lipid storage change, negative = inhibition: inconclusive: 2.48%
# COc1ccccc1OCC(=O)NCCSCc1cccc(Cl)c1 – Potency: inconclusive: 20.6 µM [rising, single point]

# — PubChem BioAssay AID2685 (National Center for Advancing Translational Sciences (NCATS), 2010)
